# In US10271552B2, “Heterocyclic compounds as pesticides” (Bayer CropScience Aktiengesellschaft, priority 2015, dated 2019):
# Some entries share one result that the patent states for a list of compounds.
# Assays:
# [1] = tested on: Euschistus heros; assay: Euschistus heros test; format: in vivo; conditions: 100 ppm; kidney bean plants, 10 larvae per plant; after 7 days
# [2] = tested on: Nezara viridula; assay: Nezara viridula test (cotton plants, feeding control); format: in vivo; conditions: 100 ppm, 10 larvae per plant, after 2 days
structure (smiles),measurement,setting,value
O=C(Nc1nc(-c2c(F)cccc2F)ns1)c1cccnc1C(F)F [Compound I-1-14],feeding control,[1],≥ 75%
same,feeding control,[2],≥ 70%
O=C(Nc1nc(-c2c(F)cccc2F)ns1)c1ccccc1C(F)(F)F [Compound I-1-4],feeding control,[1],≥ 75%
same,feeding control,[2],≥ 70%
O=C(Nc1nc(-c2c(F)cccc2F)ns1)c1nccnc1C(F)(F)F [Compound I-1-7],feeding control,[1],≥ 75%
same,feeding control,[2],≥ 70%
